Source: article PMC12345722
The exact form of at least one protein or probe is not confirmed.

Tests used:
[1] = tested on: Glycated hemoglobin (HbA1c); test: binding assay; details: Aptamer in 0.1 M TRIS, 0.1 M NaCl, 0.1 M KCl, 5 mM MgCl2, pH 7.5; HbA1c in Trinity Biotech Diluent, incubated 30-60 min at 4, 25 or 37 C; commercial protein; single-stranded DNA
[2] = tested on: Glycated hemoglobin (HbA1c); test: electrochemical aptasensor (direct Fe2+/Fe3+ oxidation peak); details: 5.5% HbA1c, about 20 uA at about -0.37 V, aptamer on SPE/CD-CNTs/AuNPs, MCH blocked; 5' thiol-Spacer C6; 3' ferrocene; Aptamer in 0.1 M TRIS, 0.1 M NaCl, 0.1 M KCl, 5 mM MgCl2, pH 7.5; HbA1c in Trinity Biotech Diluent, incubated 30-60 min at 4, 25 or 37 C; commercial protein; label: ferrocene (3'); single-stranded DNA

| Sequence | Kd [1] [nM] | binding result [2] |
| --- | --- | --- |
| TGGCAGGAAGACAAACACATCGTCGCGGCCTTAGGAGGGGCGGACGGGGGGGGGCGTGGTCTGTGGTGCTGT [HbA1c DNA aptamer (literature, ref 6)] | 7.3 | – |
| TGGCAGGAAGACAAACACATCGTCGCGGCCTTAGGAGGGGCGGACGGGGGGGGGCGTGGTCTGTGGTGCTGT [HbA1c DNA aptamer, thiol/ferrocene] | – | binds |
